Measurements reported in PubChem BioAssay AID1259254 (NCATS, 2017).

Purpose: 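Gene knock-downs that lead to re-replication, shown by excess G2 DNA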 (primary screen)
System: human HCT116 colorectal cancer cells
Reagents: single siRNA against human genes
Time to read-out: 3 days
Measured: 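Imaged Hoechst DNA stain sorts each cell into a cycle phase by DNA amount; per plate, G2 fraction set to 0% for non-targeting and 100% for GMNN siRNA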
Direction: G2 robust z-score and G2 cells, % of GMNN control: higher = more G2 cells, more excess DNA replication; raw share of cells in G2: higher = larger share of cells with G2 DNA content
Rule for the call: 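An siRNA counts as active if its G2 robust z-score lies at least 5 MADs above the screen median; here such calls match roughly 38% of GMNN control or more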
Here is one part, drawn at random, of about 59,000 reagents. About 1,550 of all reagents (2.6%) count as active. 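G2 share is only a proxy for re-replication; each gene was hit by three separate siRNAs, and active genes were retested.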 The raw values are shown without normalisation. Unmarked entries are inactive. Reagents against one gene are numbered here. Reagent sequences are not shown. Not given: the amount of reagent.

The first 2 records as a preview:
gene knocked down	reagent no.	G2 robust z-score	G2 cells, % of GMNN control	raw share of cells in G2 (%)
TOB2	1	2.53	20.8	13.1
TOB2	2	-0.893	-3.32	2.77

Results, from the first entry:
gene knocked down	reagent no.	G2 robust z-score	G2 cells, % of GMNN control	raw share of cells in G2 (%)
TOB2	1	2.53	20.8	13.1
TOB2	2	-0.893	-3.32	2.77
TOB2	3	-0.463	-0.29	3.07
ABHD12B	1	0.206	4.41	5.31
ABHD12B	2	1.65	14.5	7.4
ABHD12B	3	0.0829	3.55	4.31
GSTT1	1	-0.0211	2.82	6.76
GSTT1	2	-1.04	-4.32	2.62
GSTT1	3	0.417	5.9	7.19
ENTR1	1	0.704	7.92	8.09
ENTR1	2	0.35	5.43	6.38
ENTR1	3	-0.754	-2.34	2.3
TMEM243	1	3.02	24.2	15.1
TMEM243	2	2.41	19.9	13.5
TMEM243	3	-0.164	1.81	3.18
RPL39L	1	-0.381	0.29	4.21
RPL39L	2	0.112	3.75	4.45
RPL39L	3	-1.02	-4.22	0.585
EHBP1L1	1	0.644	7.5	6.3
EHBP1L1	2	1.3	12.1	7.27
EHBP1L1	3	-0.242	1.26	3.6
SLC12A8	1	0.733	8.12	8.81
SLC12A8	2	-1	-4.09	2.71
SLC12A8	3	-1.18	-5.36	2.8
CD59	1	1.32	12.2	9.46
CD59	2	1.41	12.9	8.54
CD59	3	0.0584	3.38	6.17
ABI1	1	-0.958	-3.77	3.62
ABI1	2	0.639	7.46	7.06
ABI1	3	0.535	6.73	5.85
PTCD1	1	0.829	8.8	6.38
PTCD1	2	2.98	23.9	13.4
PTCD1	3	0.991	9.94	8.24
SLC17A6	1	2.72	22.1	16.1
SLC17A6	2	0.0879	3.59	5.72
SLC17A6	3	0.461	6.21	6.92
KLHL25	1	-0.426	-0.029	4.21
KLHL25	2	1.53	13.7	9.2
KLHL25	3	4.62	35.4	20.3
C12orf43	1	0.998	9.99	8.93
C12orf43	2	-0.889	-3.29	3.14
C12orf43	3	-0.886	-3.26	1.84
RAB2B	1	0.0696	3.46	5.79
RAB2B	2	-0.525	-0.723	4.66
RAB2B	3	-0.756	-2.35	4.58
DEPDC1	1	-0.128	2.07	5.32
DEPDC1	2	4.07	31.6	17.2
DEPDC1	3	1.02	10.2	6.38
TRIM77	1	0.958	9.71	7.1
TRIM77	2	-0.594	-1.21	2.88
TRIM77	3	0.477	6.32	7.34
DSG1	1	3.32	26.3	14.6
DSG1	2	-0.519	-0.687	3.86
DSG1	3	-0.264	1.11	5.36
C3orf49	1	-0.964	-3.81	2.74
C3orf49	2	-0.187	1.65	3.63
C3orf49	3	0.631	7.41	5.26
SAMD7	1	-0.658	-1.66	4.31
SAMD7	2	0.294	5.03	6.12
SAMD7	3	-0.0822	2.39	6.94
ATP6V0B	1	0.827	8.79	8.39
ATP6V0B	2	0.08	3.53	6.69
ATP6V0B	3	-0.173	1.75	4.24
ZSCAN5C	1	-0.619	-1.39	2.72
ZSCAN5C	2	0.311	5.15	5.08
ZSCAN5C	3	-0.703	-1.98	2.19
SECISBP2L	1	-0.336	0.606	5.6
SECISBP2L	2	-0.212	1.48	4.56
SECISBP2L	3	-0.172	1.76	4.04
